Test results: article PMC7582373 (Molecules, 2020)

Experiment: general procedure: Fmoc solid-phase peptide synthesis; Rink amide MBHA resin; HBTU, 0.4 M NMM/DMF (on-resin bis-lactamization)
Details: whole synthesis; for final HPLC purity: 214 nm; for isolated yield: overall

Substance	final HPLC purity [%]	isolated yield [%]
PEPTIDE1{[ac].E.W.A.E.T.A.A.[L-ThiaLys].K.F.L.[L-ThiaLys].A.H.A.[am]}|CHEM1{[pPDA]}$PEPTIDE1,CHEM1,9:R3-1:R1|PEPTIDE1,CHEM1,13:R3-1:R2$$$V2.0	>95	~0.12
PEPTIDE1{[ac].E.W.A.E.T.A.A.[L-aMeThiaLys].K.F.L.[L-aMeThiaLys].A.H.A.[am]}|CHEM1{[pPDA]}$PEPTIDE1,CHEM1,9:R3-1:R1|PEPTIDE1,CHEM1,13:R3-1:R2$$$V2.0	>95	~1.5

Some peptides are written in HELM: one residue between dots, names in brackets for other building blocks, links after the first $.
